Results published in paper PMC10323626.
These are yes or no findings as the source states them, for the method shown. In cells and extracts the contact can be indirect. Some results given as binding are weak or reduced against the parent protein; the word gives no strength.

Chains of the proteins cited; added tags and fusions are not shown.
UniProt P63158: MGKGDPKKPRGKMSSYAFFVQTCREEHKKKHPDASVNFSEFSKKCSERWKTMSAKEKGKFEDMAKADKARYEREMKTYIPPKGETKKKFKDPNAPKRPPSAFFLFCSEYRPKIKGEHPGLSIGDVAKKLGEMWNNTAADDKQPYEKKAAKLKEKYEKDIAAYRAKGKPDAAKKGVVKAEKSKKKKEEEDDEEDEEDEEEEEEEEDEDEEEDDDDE

Target: T1, Toll-like receptor 9 (TLR9) (mouse (endogenous in C57BL/6 TDSCs)) (UniProt Q9EQU3)
T1 sequence: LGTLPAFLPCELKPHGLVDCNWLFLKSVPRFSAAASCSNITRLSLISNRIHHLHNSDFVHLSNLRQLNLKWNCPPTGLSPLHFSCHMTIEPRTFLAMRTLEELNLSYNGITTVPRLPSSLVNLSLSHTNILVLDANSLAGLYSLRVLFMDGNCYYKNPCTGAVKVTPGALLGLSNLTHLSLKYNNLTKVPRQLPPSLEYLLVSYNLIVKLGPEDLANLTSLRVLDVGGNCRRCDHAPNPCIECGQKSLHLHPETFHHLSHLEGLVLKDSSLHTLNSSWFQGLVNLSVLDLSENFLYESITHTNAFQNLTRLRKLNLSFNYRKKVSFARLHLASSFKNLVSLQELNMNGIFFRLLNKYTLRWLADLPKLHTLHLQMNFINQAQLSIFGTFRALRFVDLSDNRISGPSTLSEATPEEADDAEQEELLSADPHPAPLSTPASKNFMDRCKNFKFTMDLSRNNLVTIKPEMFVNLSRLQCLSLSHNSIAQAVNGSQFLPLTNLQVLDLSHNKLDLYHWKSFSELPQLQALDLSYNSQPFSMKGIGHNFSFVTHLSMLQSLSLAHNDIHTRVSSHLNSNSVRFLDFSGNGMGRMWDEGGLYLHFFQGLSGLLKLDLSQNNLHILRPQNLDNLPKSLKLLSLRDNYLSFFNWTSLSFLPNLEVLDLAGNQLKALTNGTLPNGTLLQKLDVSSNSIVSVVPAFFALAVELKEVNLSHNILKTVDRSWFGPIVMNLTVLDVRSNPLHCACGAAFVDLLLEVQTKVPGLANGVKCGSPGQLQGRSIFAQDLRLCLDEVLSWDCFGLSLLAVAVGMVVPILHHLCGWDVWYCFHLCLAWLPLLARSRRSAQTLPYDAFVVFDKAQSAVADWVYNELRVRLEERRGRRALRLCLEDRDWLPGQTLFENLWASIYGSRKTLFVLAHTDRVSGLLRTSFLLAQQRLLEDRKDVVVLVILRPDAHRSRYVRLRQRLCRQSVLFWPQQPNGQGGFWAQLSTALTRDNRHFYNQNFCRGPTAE
Assay: co-IP; lysate of TDSCs (IP Lysis/Wash buffer) after treatment with Mϕ-EVs, pyroMϕ-EVs, OV-EVs, KD-EVs or inhibpyroMϕ-EVs; anti-HMGB1, anti-TLR9 or normal rabbit IgG coupled to magnetic beads (Pierce Direct Magnetic IP/Co-IP kit), 4 °C overnight; Western blot

high mobility group protein 1 (HMGB1) (from UniProt P63158 1-215)
binding: binds
